What is called Ki is a measure of affinity in units of concentration, obtained from inhibition or displacement. Higher therefore signals a looser hold on the target.

Amino acid sequences for entries named in this document (tags omitted). A change or cut given only in a name is not applied to a line headed by its entry.
UniProt P28593: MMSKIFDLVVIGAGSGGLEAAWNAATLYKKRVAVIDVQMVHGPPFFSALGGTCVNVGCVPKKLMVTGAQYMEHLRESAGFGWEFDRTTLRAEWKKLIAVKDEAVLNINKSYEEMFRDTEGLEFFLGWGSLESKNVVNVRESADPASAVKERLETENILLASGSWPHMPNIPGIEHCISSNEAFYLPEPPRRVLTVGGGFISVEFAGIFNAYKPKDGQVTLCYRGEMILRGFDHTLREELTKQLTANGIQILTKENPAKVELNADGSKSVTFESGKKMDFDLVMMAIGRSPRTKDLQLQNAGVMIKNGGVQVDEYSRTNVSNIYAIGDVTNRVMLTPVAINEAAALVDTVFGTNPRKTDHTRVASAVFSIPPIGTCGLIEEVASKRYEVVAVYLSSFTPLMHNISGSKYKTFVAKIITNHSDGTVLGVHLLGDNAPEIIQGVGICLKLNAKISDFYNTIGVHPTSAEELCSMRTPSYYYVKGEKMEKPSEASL

Our source for the Ki values is article PMC3491871 (The Journal of biological chemistry, 2004).

SMILES strings stand for the structures.

This assay deals with trypanothione reductase (Trypanosoma cruzi, UniProt P28593). Kind of assay: biochemical.

For `CN(C)CCCN1c2ccccc2CCc2ccc(Cl)cc21` [clomipramine], the Ki turned out to be 3.5 ± 0.2 µM.
